We go through one molecule from publication PMC8761896 (2021).

One assay has as its target VRC01gl_Q39LH_ins107aL. Put plainly: SPR.
A further assay concerns the target VRC01gl_Q39LH_Y91FH. Put plainly: SPR.

B1: eOD-GT6 (other)
chain: DTITLPCRPAPPPHCSSNITGLILTRDGGVSNDETEIFRPSGGDMRDIARCQIAGTVVSTQLFLNGSLAEEEVVIRSVDFRDNAKSICVQLATSVEIACTGAGHCAISRAKWANTLKQIASKLREQFGARTIIFKQSSGGDPEFVTHSFNCGGEFFYCDSTQLFASTWFAST
For the molecule B1, in the assay with VRC01gl_Q39LH_ins107aL, the Kd stood at 13.5 nM and the off-rate constant (koff) amounted to 0.000569 s⁻¹. In the assay with VRC01gl_Q39LH_Y91FH, this molecule returned a dissociation constant Kd of 10.3 nM and an off-rate (koff) of 0.000541 s⁻¹.
